# Data: PubChem BioAssay AID445 (National Center for Advancing Translational Sciences (NCATS), 2006)
# The list shows a part of the results. These are further read-outs of the screen, such as a control signal, another cell line or another target. No call is given for them. The list favours compounds with an active or inconclusive main result. The note in brackets gives the kind of curve behind each potency; many fits are weak.
# Test: IkB Signaling
# Settings: ABC-DLBCL IkBa-CBG/CBR dual luciferase ratio (green luciferase fused to IkBa over red control in OCI-Ly3 lymphoma cells), 4 h
# Procedure, shortened: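 Curves were fitted separately to fusion (green), unfused (red) and ratio luminescence, then classed by r2, magnitude and activity. Cells: OCI-Ly3, 4 h compound plus doxycycline at 37C; 10 uM MG-132 defined full response.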
# [1] = measured here: control luc red channel unless noted
# [2] = measured here: IkB-luc green channel
# [3] = measured here: control luc red channel
structure (smiles),measurement,setting,value
Cc1c(Cl)cccc1NC(=O)c1ccc(NC(=O)N2CCSc3ncccc32)cc1,AC50,[1],"12.6 µM [falling, partial curve]"
CCOC(=O)Cc1cnc(NC(=O)c2ccccc2)s1,AC50,[1],"12.6 µM [falling, partial curve]"
COc1ccc(N2CCN(C(=O)c3cnn(-c4ccc(F)cc4)c3-n3cccc3)CC2)cc1,AC50,[1],"20 µM [falling, single point]"
O=C1CCCc2cc(S(=O)(=O)N3CCCC(C(=O)Nc4ccc(F)c(Cl)c4)C3)ccc2N1 (centres undefined),AC50,[1],"31.6 µM [falling, partial curve]"
CSc1cccc(Nc2cc(C(=O)NCCc3ccc(Cl)cc3)c3ccccc3n2)c1,AC50,[1],"6.31 µM [falling, partial curve]"
CC1CN(C(=O)N2CCC(C(=O)N3CCN(c4ccccc4)CC3)CC2)c2cc(Cl)ccc2O1 (centres undefined),AC50,[1],"25.1 µM [falling, single point]"
CCOc1ccc2nc(N3CCC(C(=O)Nc4ccccc4CC)CC3)sc2c1,AC50,[1],"12.6 µM [falling, partial curve]"
CCN(CC)S(=O)(=O)c1ccc(Cl)c(C(=O)Nc2nnc(C)s2)c1,AC50,[1],"12.6 µM [falling, partial curve]"
Cc1cc(N2CCCCC2)nc2ccc(NC(=O)/C=C/c3ccc(OC(C)C)cc3)cc12,AC50,[1],"0.398 µM [falling, full curve]"
O=c1oc2ccccc2c(O)c1/C=N/c1ncccn1,AC50,[1],"2.51 µM [falling, full curve]"
COC(=O)c1c(Oc2ccc(OC)cc2)nnc(-c2ccccc2)c1-c1ccccc1,AC50,[1],"15.8 µM [falling, partial curve]"
CCOc1ccccc1CNC(=O)c1ccc(N2Cc3ccccc3Oc3ncccc32)s1,AC50,[1],"10 µM [falling, partial curve]"
COc1ccc(CNC(=O)CCCn2nc(C)c3sc4ccccc4c3c2=O)cc1OC,AC50,[1],"10 µM [falling, partial curve]"
Cc1ccc(CNC(=O)c2cccn2-c2nnc(N3CCCC3)s2)cc1,AC50,[1],"15.8 µM [falling, partial curve, poor fit]"
COc1cccc(Cn2c(C3CC3)nc3ccc(NC(=O)c4ccco4)cc3c2=O)c1,AC50,[1],"3.16 µM [falling, partial curve]"
O=C(Cn1ncc2ccsc2c1=O)N1CCN(c2ccc(F)cc2)CC1,AC50,[1],"25.1 µM [falling, partial curve]"
CCC1CN(C(=O)Nc2cccc3c2CCCC3)c2cc(Cl)ccc2O1 (centres undefined),AC50,[1],"31.6 µM [falling, single point]"
Cc1oc(-c2ccccc2Cl)nc1CS(=O)CC(=O)NCc1ccc(Cl)cc1 (centres undefined),AC50,[1],"25.1 µM [falling, partial curve]"
O=C(Nc1ccc2c(c1)OCO2)c1ccc(Br)s1,AC50,[1],"6.31 µM [falling, partial curve]"
Cc1ccc(COc2ccc(-c3cc(C(F)(F)F)n4nc(C)cc4n3)cc2)cc1,AC50,[1],"0.251 µM [falling, full curve]"
O=S(=O)(Nc1nc2ccccc2nc1Nc1ccccc1Br)c1ccccc1,AC50,[1],"25.1 µM [falling, single point]"
Fc1ccc(-c2ccc(CNCCSc3nnnn3-c3ccccc3)o2)cc1,AC50,[1],"31.6 µM [falling, single point]"
CN1CCc2nc(SCC(=O)Nc3ccc(F)cc3)c(C#N)cc2C1,AC50,[1],"10 µM [falling, partial curve]"
CC1CCc2c(sc(NC(=O)c3cc(-c4cccc(Cl)c4)on3)c2C(N)=O)C1 (centres undefined),AC50,[1],"12.6 µM [falling, partial curve]"
Cc1ccc(NC(=O)Cc2coc3ccc(C(C)C)cc23)c(C)c1,AC50,[1],"31.6 µM [falling, partial curve]"
Cc1oc2c(cc(NS(=O)(=O)c3ccc(C(C)C)cc3)c3ccccc32)c1C(=O)O,AC50,[1],"15.8 µM [falling, partial curve]"
c1ccc(-c2nc(CSc3nnnn3-c3ccccc3)cs2)cc1,AC50,[1],"31.6 µM [falling, single point]"
C=CCn1c(SCC(=O)Nc2ccccc2)nnc1-c1cccc(S(=O)(=O)N2CCOCC2)c1,AC50,[1],"2 µM [falling, partial curve]"
CCN(CC)C(=O)c1sc2c(c1C)c(=O)n(-c1ccc(Cl)c(Cl)c1)c(=O)n2Cc1cc(=O)n2ccccc2n1,AC50,[1],"2.51 µM [rising, partial curve]"
Cc1ccc(S(=O)(=O)c2[nH]c(-c3ccccc3)nc2SCC(N)=O)cc1,AC50,[1],"7.94 µM [falling, partial curve]"
CCOC(=O)N1CCN(C(=O)c2c(C)nn(-c3cccc(C)c3)c2-n2cccc2)CC1,AC50,[2],"0.0398 µM [rising, full curve, poor fit]"
same,AC50,[3],"1.26 µM [rising, partial curve]"
CCc1ccc2[nH]c(=O)c(CN(Cc3ccccc3)Cc3nnnn3Cc3ccco3)cc2c1,AC50,[1],"6.31 µM [falling, partial curve]"
O=C(NCc1ccc2c(c1)CCN2C(=O)c1ccccc1)c1ccccc1,AC50,[1],"39.8 µM [falling, single point]"
COc1ccc(CNC(=O)C2=C(C)C(=O)OC23CCCCC3)cc1,AC50,[1],"31.6 µM [falling, single point]"
CCCSc1nnc2c(n1)OC(c1ccc(Br)s1)Nc1ccccc1-2 (centres undefined),AC50,[1],"0.126 µM [falling, full curve, poor fit]"
COCCOC(=O)C1=C(C)OC(N)=C(C#N)C1c1ccc2c(c1)OCO2 (centres undefined),AC50,[1],"25.1 µM [rising, partial curve] [measured here: IkB-luc green channel]"
COc1ccc(-c2onc(C)c2C)cc1S(=O)(=O)NCC(C)c1ccccc1 (centres undefined),AC50,[1],"31.6 µM [falling, partial curve]"
CCOC(=O)N1CCN(C(=O)CSCC(=O)Nc2nc(-c3ccc4c(c3)OCO4)cs2)CC1,AC50,[1],"15.8 µM [falling, partial curve]"
COc1cccc(N2CCN(C(=O)CCCn3c(=O)[nH]c4ccc(Br)cc4c3=O)CC2)c1,AC50,[1],"20 µM [falling, partial curve]"
Cc1ccc(Nc2c(-c3ccc(Cl)cc3)nc3sccn23)c(C)c1,AC50,[1],"25.1 µM [falling, single point]"
CC(C)Oc1cccc(C(=O)Nc2ccc3oc(-c4cccc(Cl)c4)nc3c2)c1,AC50,[1],"10 µM [falling, partial curve]"
COc1ccc(OC)c(CNS(=O)(=O)c2ccc3[nH]c4c(c3c2)CCCCC4)c1,AC50,[1],"25.1 µM [falling, partial curve]"
CC1(C)CCC(C)(C)c2cc(C(=O)Nc3ccc(C(=O)O)cc3)ccc21,AC50,[1],"39.8 µM [falling, single point]"
CCn1cnc2c1c(=O)n(CC(=O)N1CCc3ccccc31)c(=O)n2Cc1ccccc1,AC50,[1],"20 µM [falling, partial curve]"
Cc1ccc(NC(=O)CSc2nccn2Cc2ccco2)cc1Cl,AC50,[1],"7.94 µM [falling, partial curve]"
COc1cccc(NC(=O)CSCc2cc(=O)c3ccc(C)c(C)c3[nH]2)c1,AC50,[1],"39.8 µM [falling, single point]"
CCOc1ccccc1O[C@@H](c1ccccc1)[C@@H]1CNCCO1,AC50,[1],"39.8 µM [falling, single point]"
O=S(=O)(NC1CCc2ccccc21)c1ccc(S(=O)(=O)N2CCCC2)cc1 (centres undefined),AC50,[1],"20 µM [falling, partial curve]"
CCCCCOC(=O)c1ccc(NC(=O)c2ccco2)cc1,AC50,[1],"25.1 µM [falling, single point]"
Cc1nn2c(=O)cc(COC(=O)c3cccc(NC(=O)COc4ccccc4Cl)c3)nc2s1,AC50,[1],"10 µM [falling, partial curve]"
Cc1ccc(C(=O)c2cn(Cc3cccc(C)c3)c3nc(C)ccc3c2=O)cc1,AC50,[1],"39.8 µM [falling, single point]"
COc1cccc2c1C(=N)c1c(O)c3c(c(O)c1C2=O)C[C@](O)(C(C)=O)C[C@@H]3O[C@H]1C[C@H](N)[C@@H](O)[C@H](C)O1,AC50,[1],"2.51 µM [falling, partial curve]"
Cc1ccc(NC(=O)CSc2ncc(S(=O)(=O)c3ccc(C(C)C)cc3)c(=O)[nH]2)cc1C,AC50,[1],"0.251 µM [falling, full curve, poor fit]"
Cc1ccc(CNC(=O)c2nc(SCc3ccc(F)cc3)ncc2Cl)cc1,AC50,[1],"1.26 µM [rising, partial curve]"
Cc1cc(C)n2c(Nc3ccc4c(c3)OCCO4)c(-c3ccc(Cl)cc3)nc2n1,AC50,[1],"25.1 µM [falling, single point]"
COC(=O)c1cc(S(=O)(=O)N2CCN(c3ccc(OC)cc3)CC2)c[nH]1,AC50,[1],"10 µM [falling, partial curve]"
CC(C)n1c(-c2ccc(N(C)C)cc2)nc2ccccc21,AC50,[2],"39.8 µM [rising, single point]"
same,AC50,[3],"25.1 µM [falling, partial curve]"
Cc1cc(C(=O)OCC(=O)NCc2ccco2)c(C)n1-c1ccccc1,AC50,[1],"7.94 µM [rising, partial curve] [measured here: IkB-luc green channel]"
Cc1ccc(-n2c(C)cc(C(=O)CSc3nncs3)c2C)cc1,AC50,[1],"25.1 µM [falling, partial curve]"
C=CCc1cccc(CNc2nc3ccccc3n2CCC)c1O,AC50,[1],"25.1 µM [falling, partial curve]"
CCCCSC1=C(C#N)C(c2ccccc2C)C(C(=O)OCC)C(=O)N1 (centres undefined),AC50,[1],"15.8 µM [falling, partial curve]"
COCCn1c(N)c(C(=O)OCc2ccccc2)c2nc3ccccc3nc21,AC50,[1],"12.6 µM [falling, partial curve]"

# Fetched one by one from above (five):
structure (smiles),measurement,setting,value
Cc1ccc(CNC(=O)c2nc(SCc3ccc(F)cc3)ncc2Cl)cc1,AC50,[1],"1.26 µM [rising, partial curve]"
Cc1cc(N2CCCCC2)nc2ccc(NC(=O)/C=C/c3ccc(OC(C)C)cc3)cc12,AC50,[1],"0.398 µM [falling, full curve]"
CC1CCc2c(sc(NC(=O)c3cc(-c4cccc(Cl)c4)on3)c2C(N)=O)C1 (centres undefined),AC50,[1],"12.6 µM [falling, partial curve]"
CC1CN(C(=O)N2CCC(C(=O)N3CCN(c4ccccc4)CC3)CC2)c2cc(Cl)ccc2O1 (centres undefined),AC50,[1],"25.1 µM [falling, single point]"
CCCSc1nnc2c(n1)OC(c1ccc(Br)s1)Nc1ccccc1-2 (centres undefined),AC50,[1],"0.126 µM [falling, full curve, poor fit]"
